# Experimental data as given in article PMC8464984, “AimR Adopts Preexisting Dimer Conformations for Specific Target Recognition in Lysis-Lysogeny Decisions of Bacillus Phage phi3T” (Biomolecules, 2021).
# Residue numbers refer to the chain shown, from its start. In names and notes the source's numbering stands. No constants are given. Whether binding was seen depends on the method and setting.
# T1: phAimR^C6S/C74S/C99S/C136S/C223S/C267S/N103C, labelled with Alexa488 and Cy5 (Bacillus phage phi3T) (UniProt P0DOE3)
# T1 sequence (chain, Alexa Fluor 488 C5 maleimide or Cy5 maleimide on the cysteine at N103C): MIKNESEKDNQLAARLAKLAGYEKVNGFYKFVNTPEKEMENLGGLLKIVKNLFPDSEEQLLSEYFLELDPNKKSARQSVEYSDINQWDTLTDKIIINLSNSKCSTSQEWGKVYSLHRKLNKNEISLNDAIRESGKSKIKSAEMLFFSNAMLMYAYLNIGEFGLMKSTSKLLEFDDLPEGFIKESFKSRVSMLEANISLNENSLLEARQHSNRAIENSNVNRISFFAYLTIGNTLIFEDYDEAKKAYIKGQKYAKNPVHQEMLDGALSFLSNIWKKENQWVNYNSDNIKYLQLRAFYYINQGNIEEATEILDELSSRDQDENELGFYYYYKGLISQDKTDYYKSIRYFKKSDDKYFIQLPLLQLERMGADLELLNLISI
# T2: phAimR^C6S/C74S/C99S/C136S/C223S/C267S/D174C, labelled with Alexa488 and Cy5 (Bacillus phage phi3T) (UniProt P0DOE3)
# T2 sequence (chain, Alexa Fluor 488 C5 maleimide or Cy5 maleimide on the cysteine at D174C): T1 sequence (chain, Alexa Fluor 488 C5 maleimide or Cy5 maleimide on the cysteine at N103C) with C103N, D174C
# B1: phAimR carrying two amino acids substitutions (phAimR^Y341A/E371A) (natural protein, Bacillus phage phi3T)
# chain: T1 sequence (chain, Alexa Fluor 488 C5 maleimide or Cy5 maleimide on the cysteine at N103C) with S6C, S74C, S99C, C103N, S136C, S223C, S267C, Y341A, E371A
# notes: AimR of Bacillus phage phi3T (GenBank KY030782.1) with Y341A and E371A; also called phAim^Y341A/E371A; phAimR^Y341/E371A; source: E. coli BL21 (DE3), purified, prepared in the same way as the wild-type protein; not shown: His6, N-terminal, cleaved
# B2: SPbeta arbitrium peptide (GMPRGA) (peptide)
# peptide: GMPRGA
# What was measured:
# [1] = biological target: phAimR carrying two amino acids substitutions (phAimR^Y341A/E371A) (Bacillus phage phi3T) (UniProt P0DOE3); assay: condition: only with a 10-fold molar excess of SAIRGA peptide; AUC; sedimentation velocity, c(s) model; 0.64 mg/mL protein with 10-fold molar excess of SAIRGA peptide; 18 C, 55,000 r.p.m.; 25 mM Tris-HCl pH 8.0, 300 mM NaCl; both purified
# [2] = biological target: phAimR carrying two amino acids substitutions (phAimR^Y341A/E371A) (Bacillus phage phi3T) (UniProt P0DOE3); assay: SEC; Superdex 200 Increase 10/300 GL; 8.2 uM protein with 82 uM SAIRGA peptide; 25 mM Tris-HCl pH 8.0, 300 mM NaCl; both purified
# [3] = biological target: phAimR carrying two amino acids substitutions (phAimR^Y341A/E371A) (Bacillus phage phi3T) (UniProt P0DOE3); assay: SAXS; 100 uM protein with 200 uM SAIRGA peptide; room temperature; 25 mM Tris-HCl pH 8.0, 300 mM NaCl; both purified
# [4] = biological target: phAimR carrying two amino acids substitutions (phAimR^Y341A/E371A) (Bacillus phage phi3T) (UniProt P0DOE3); assay: condition: only with a 10-fold molar excess of SAIRGA peptide; SEC-MALS; static light scattering; 1.6 mg/mL protein with 10-fold molar excess of SAIRGA; Superdex 200 Increase 10/300 with HELEOS multi-angle light scattering; 25 mM Tris-HCl pH 8.0, 300 mM NaCl; both purified
# [5] = biological target: T1, phAimR^C6S/C74S/C99S/C136S/C223S/C267S/N103C, labelled with Alexa488 and Cy5 (Bacillus phage phi3T); assay: FRET or BRET; smFRET in solution; about 100 pM doubly labelled (Alexa488/Cy5) phAimR, peptide titrated; KD from the population of the enriched FRET state; 25 C, 20 mM Tris-HCl pH 7.5, 100 mM NaCl, 0.005% Tween 20, 1 mM L-ascorbic acid, 1 mM methylviologen; both purified
# [6] = biological target: T2, phAimR^C6S/C74S/C99S/C136S/C223S/C267S/D174C, labelled with Alexa488 and Cy5 (Bacillus phage phi3T); assay: as above
Binder,binding [1],binding [2],binding [3],binding [4],binding [5],binding [6]
B1,no binding,no binding (condition: with 82 uM SAIRGA peptide),no binding (condition: with 200 uM SAIRGA peptide),no binding,–,–
B2,–,–,–,–,no binding,no binding
